Results are given in words; binding and its absence hold for the method and conditions named. Some entries that bind do so weakly or less than the wild type. Sequences can lack the tags named with a protein.
T1: Ubc9 (S. cerevisiae SUMO E2), two-hybrid fusion (S. cerevisiae) (UniProt P50623)
T1 sequence: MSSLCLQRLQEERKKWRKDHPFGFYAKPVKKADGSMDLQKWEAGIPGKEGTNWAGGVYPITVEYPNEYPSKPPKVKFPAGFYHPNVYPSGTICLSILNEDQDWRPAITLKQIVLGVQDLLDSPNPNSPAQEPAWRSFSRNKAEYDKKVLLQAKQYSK

Chains of the proteins cited; added tags and fusions are not shown. Lines headed by an entry give the natural chain unless they say otherwise; changes in a name come on top.
UniProt P15873: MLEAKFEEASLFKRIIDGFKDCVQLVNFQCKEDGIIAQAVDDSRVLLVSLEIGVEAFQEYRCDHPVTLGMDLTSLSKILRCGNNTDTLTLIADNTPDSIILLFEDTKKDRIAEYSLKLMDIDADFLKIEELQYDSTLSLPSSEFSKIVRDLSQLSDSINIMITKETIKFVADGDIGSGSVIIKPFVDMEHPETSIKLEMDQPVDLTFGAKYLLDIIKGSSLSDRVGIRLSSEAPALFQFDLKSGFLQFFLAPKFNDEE

T2: GSTUbc9 (S. cerevisiae) (UniProt P50623)
T2 sequence: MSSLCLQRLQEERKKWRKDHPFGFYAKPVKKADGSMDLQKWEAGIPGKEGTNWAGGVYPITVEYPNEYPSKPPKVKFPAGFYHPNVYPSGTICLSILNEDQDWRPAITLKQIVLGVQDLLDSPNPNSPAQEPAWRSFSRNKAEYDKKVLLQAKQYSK


What was measured:
[1] = target: PCNA (S. cerevisiae, POL30), two-hybrid fusion (S. cerevisiae) (UniProt P15873); assay: two-hybrid; Gal4 system in reporter strain PJ69-4A; activation domain (AD) and DNA-binding domain (BD) fusions; growth on medium lacking histidine (-HLW) or, for stronger interactions, histidine and adenine (-AHLW)
[2] = target: PCNA(K127/164R), two-hybrid fusion (S. cerevisiae) (UniProt P15873); assay: as above
[3] = target: Rad18 (S. cerevisiae), two-hybrid fusion (S. cerevisiae) (UniProt P10862); assay: as above
[4] = target: T1, Ubc9 (S. cerevisiae SUMO E2), two-hybrid fusion (S. cerevisiae); assay: as above
[5] = target: full-length Smt3 (S. cerevisiae SUMO), two-hybrid fusion (S. cerevisiae) [SUMO: Q12306]; assay: as above
[6] = target: GSTSmt3 (S. cerevisiae) [SUMO: Q12306]; assay: pull-down; GST-tagged protein immobilised on glutathione Sepharose (1 h, 4°C), binding partner added for 90 min at 4°C in phosphate-buffered saline with 0.05% Triton X-100; three washes; anti-His western blot; both purified
GSTUbc9 (S. cerevisiae) = target: T2, GSTUbc9 (S. cerevisiae); assay: as above

Binder | binding [1] | binding [2] | binding [3] | binding [4] | binding [5] | binding [6] | binding (GSTUbc9 (S. cerevisiae))
Rad18 (S. cerevisiae), two-hybrid fusion (protein, UniProt P10862 1-487) MDHQITTASDFTTTSIPSLYQLDTLLRCHICKDFLKVPVLTPCGHTFCSLCIRTHLNNQPNCPLCLFEFRESLLRSEFLVSEIIQSYTSLRSSLLDALRIPKPTPVPENEEVPGPENSSWIELISESESDSVNAADDDLQIVATSERKLAKRSMTDILPLSSKPSKRNFAMFRSERIKKKSKPNEQMAQCPICQQFYPLKALEKTHLDECLTLQSLGKKPKISTTFPTESNPHNKSSSRFKVRTPEVDKSSCGETSHVDKYLNSMMSAEHQRLPKINFTSMTQSQIKQKLSSLGLSTNGTRQNMIKRYNHYEMLWNSNFCDSLEPVDEAELKRQLLSWDVSHNKTPQNSSNKGGISKLMIMKSNGKSSSYRKLLENFKNDKFNRKGWMVMFRKDFARLIREAKMKIKTGSSDSSGSVGHSNDGDGVEKVQSDQGTEDQQMEKDQDTVINEDRVAGERNLPNEDSTDADLSRELMDLNEYSKDPPGNN | binds | binds | binds | binds | binds | – | –
HisRad18(1-255) (domain or fragment, UniProt P10862 1-255) MDHQITTASDFTTTSIPSLYQLDTLLRCHICKDFLKVPVLTPCGHTFCSLCIRTHLNNQPNCPLCLFEFRESLLRSEFLVSEIIQSYTSLRSSLLDALRIPKPTPVPENEEVPGPENSSWIELISESESDSVNAADDDLQIVATSERKLAKRSMTDILPLSSKPSKRNFAMFRSERIKKKSKPNEQMAQCPICQQFYPLKALEKTHLDECLTLQSLGKKPKISTTFPTESNPHNKSSSRFKVRTPEVDKSSCGET | – | – | – | – | – | binds | binds weakly
HisRad18(1-255) SIM* (L139A, I141A, V142A) (domain or fragment, UniProt P10862 1-255) MDHQITTASDFTTTSIPSLYQLDTLLRCHICKDFLKVPVLTPCGHTFCSLCIRTHLNNQPNCPLCLFEFRESLLRSEFLVSEIIQSYTSLRSSLLDALRIPKPTPVPENEEVPGPENSSWIELISESESDSVNAADDDAQAAATSERKLAKRSMTDILPLSSKPSKRNFAMFRSERIKKKSKPNEQMAQCPICQQFYPLKALEKTHLDECLTLQSLGKKPKISTTFPTESNPHNKSSSRFKVRTPEVDKSSCGET | – | – | – | – | – | binds weakly | binds weakly
Rad18(SIM*) (L139A, I141A, V142A), two-hybrid fusion (protein, UniProt P10862 1-487) MDHQITTASDFTTTSIPSLYQLDTLLRCHICKDFLKVPVLTPCGHTFCSLCIRTHLNNQPNCPLCLFEFRESLLRSEFLVSEIIQSYTSLRSSLLDALRIPKPTPVPENEEVPGPENSSWIELISESESDSVNAADDDAQAAATSERKLAKRSMTDILPLSSKPSKRNFAMFRSERIKKKSKPNEQMAQCPICQQFYPLKALEKTHLDECLTLQSLGKKPKISTTFPTESNPHNKSSSRFKVRTPEVDKSSCGETSHVDKYLNSMMSAEHQRLPKINFTSMTQSQIKQKLSSLGLSTNGTRQNMIKRYNHYEMLWNSNFCDSLEPVDEAELKRQLLSWDVSHNKTPQNSSNKGGISKLMIMKSNGKSSSYRKLLENFKNDKFNRKGWMVMFRKDFARLIREAKMKIKTGSSDSSGSVGHSNDGDGVEKVQSDQGTEDQQMEKDQDTVINEDRVAGERNLPNEDSTDADLSRELMDLNEYSKDPPGNN | binds | – | – | binds | binds weakly | – | –
